In patent publication US20260258118A1:
Results are given in words; binding and its absence hold for the method and conditions named. Some binding calls cover weakened binding; strength is not graded here.

T1: Pro-C3 target peptide … (C-terminal neo-epitope of PIIINP, 144-153 of the alpha1 chain) (human)
T1 sequence (peptide): CPTGPQNYSP

T2: PRO-C6 peptide … (last 10 amino acids of the type VI collagen alpha3 chain)
T2 sequence (peptide): KPGVISVMGT


Tests used:
[1] = molecular target: T1, Pro-C3 target peptide … (C-terminal neo-epitope of PIIINP, 144-153 of the alpha1 chain) (human); assay: antibody characterization with peptides (ELISA, as previously described)
[2] = molecular target: T2, PRO-C6 peptide … (last 10 amino acids of the type VI collagen alpha3 chain); assay: hybridoma clone screening with peptides

binding [1] | binding [2] | Binder
binds | – | Pro-C3 monoclonal antibody (monoclonal antibody NB61N-62) (antibody, mouse IgG2a, kappa, V domains shown) VH: EVQLQQSGPEVLKPGASVKMSCKASGYTFINYVIHWLKQKAGQGPEWIGYMNPYNDVPKNNAKFRGKARLTSDRSSTTAYMELNSLTSEDSAVYYCARGGFFGPLSYWGQGTLVTVSA VL: DVLMTQTPLSLSVSLGDQASISCRSSQNIVYSNGDTYFEWYLQKPGQSPKLLIYKVSQRFSGVPDRFSGSGSGTDFTLKISRVETEDLGVYYCFQGAHDPPAFGGGTKLELKR
– | binds | PRO-C6 monoclonal antibody 10A3 (antibody, mouse IgG1, kappa, V domains shown) VH: EVQLQQSGPVMVKPGTSVKTSCKASGYTFTDFNMNWVKQSHGKSLEWIGAINPHNGATSYNQKFSGKATLTVDKSSSTAYMELNSLTSDDSAVYYCARWGNGKNSWGQGTTLTVSS VL: DVVMTQTPLSLPVNLGDQASISCRSSQRIVHSNGITFLEWYLQKPGQSPKLLIYRVSNRFSGVPDRFSGSGSGTDFTLKISRVEAEDLGLYYCFQGSHVPLTFGAGTRLELKR
